# ± gives the standard deviation of the averaged measurements. Only a part is listed here, and it is no random draw.
# How the values were obtained:
# Test in all cases: NP40-soluble protein abundance relative to vehicle (solubility fold change) (ratio); higher = more soluble protein in presence of ATP
# [1] = target: T1, B7WPL9 and related entries (UniProt Q6PFW1)
# T1 sequence (whole entry): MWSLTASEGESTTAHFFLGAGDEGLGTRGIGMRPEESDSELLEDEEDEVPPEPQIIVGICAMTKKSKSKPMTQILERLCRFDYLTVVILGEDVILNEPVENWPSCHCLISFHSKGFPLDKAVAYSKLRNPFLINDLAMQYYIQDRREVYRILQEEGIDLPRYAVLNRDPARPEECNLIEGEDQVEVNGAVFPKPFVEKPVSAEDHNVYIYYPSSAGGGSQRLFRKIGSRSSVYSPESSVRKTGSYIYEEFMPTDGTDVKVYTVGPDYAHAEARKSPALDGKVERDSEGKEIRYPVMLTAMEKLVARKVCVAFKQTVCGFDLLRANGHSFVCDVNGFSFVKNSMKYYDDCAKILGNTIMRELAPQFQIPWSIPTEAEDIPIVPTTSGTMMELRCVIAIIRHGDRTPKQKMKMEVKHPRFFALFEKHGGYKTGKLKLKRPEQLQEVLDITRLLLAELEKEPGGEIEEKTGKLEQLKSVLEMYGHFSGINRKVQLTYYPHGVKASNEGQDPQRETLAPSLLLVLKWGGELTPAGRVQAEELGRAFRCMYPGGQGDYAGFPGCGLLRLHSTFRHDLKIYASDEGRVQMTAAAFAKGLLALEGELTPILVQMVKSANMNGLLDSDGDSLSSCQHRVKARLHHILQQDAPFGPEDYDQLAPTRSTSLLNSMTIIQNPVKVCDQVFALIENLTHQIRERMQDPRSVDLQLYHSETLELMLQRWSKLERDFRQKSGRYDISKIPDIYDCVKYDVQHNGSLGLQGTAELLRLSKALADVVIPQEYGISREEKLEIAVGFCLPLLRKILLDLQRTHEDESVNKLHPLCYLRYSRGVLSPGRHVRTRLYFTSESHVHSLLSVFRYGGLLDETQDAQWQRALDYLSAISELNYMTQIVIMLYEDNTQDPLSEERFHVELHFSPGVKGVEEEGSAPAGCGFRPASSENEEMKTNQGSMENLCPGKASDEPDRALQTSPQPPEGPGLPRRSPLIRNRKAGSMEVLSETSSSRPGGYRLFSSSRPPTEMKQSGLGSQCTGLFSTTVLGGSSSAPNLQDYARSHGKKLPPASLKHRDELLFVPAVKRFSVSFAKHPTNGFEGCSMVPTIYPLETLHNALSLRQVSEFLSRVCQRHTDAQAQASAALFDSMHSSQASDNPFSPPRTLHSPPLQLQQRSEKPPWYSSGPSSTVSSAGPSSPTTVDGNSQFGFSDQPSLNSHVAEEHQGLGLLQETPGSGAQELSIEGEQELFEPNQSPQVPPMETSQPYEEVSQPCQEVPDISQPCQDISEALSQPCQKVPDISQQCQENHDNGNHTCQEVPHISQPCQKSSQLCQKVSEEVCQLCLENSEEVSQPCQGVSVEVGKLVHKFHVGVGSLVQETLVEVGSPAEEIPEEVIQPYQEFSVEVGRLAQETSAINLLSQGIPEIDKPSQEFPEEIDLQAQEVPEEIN
# Summary of the method: (§1)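 Values are fold changes against the detergent-processed vehicle, based on vsn-normalised intensities. Jurkat crude lysate was treated at eight concentrations from 0.1 to 10 mM (10 min at room temperature, then 3 min at 37 °C), solubilised with 0.8% NP40 and benzonase, ultracentrifuged and analysed by TMT-labelled LC-MS/MS over three independent experiments.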
# B7Z4W5 = target: T2, B7Z4W5 (UniProt Q16773)
# T2 sequence (whole entry): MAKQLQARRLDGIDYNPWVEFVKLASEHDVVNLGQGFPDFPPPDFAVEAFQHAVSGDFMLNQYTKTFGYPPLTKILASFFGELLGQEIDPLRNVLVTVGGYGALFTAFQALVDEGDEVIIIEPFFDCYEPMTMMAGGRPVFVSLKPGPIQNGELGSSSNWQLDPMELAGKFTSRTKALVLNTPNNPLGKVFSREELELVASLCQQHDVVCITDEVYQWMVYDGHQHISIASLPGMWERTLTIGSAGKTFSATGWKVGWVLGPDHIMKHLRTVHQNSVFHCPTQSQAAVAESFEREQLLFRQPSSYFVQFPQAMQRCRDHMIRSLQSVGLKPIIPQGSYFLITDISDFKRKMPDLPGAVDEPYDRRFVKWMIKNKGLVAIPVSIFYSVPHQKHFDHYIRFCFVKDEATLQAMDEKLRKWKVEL
# Summary of the method: as §1
# [2] = target: T3, B7ZL14 and related entries (UniProt Q96RU3)
# T3 sequence (whole entry): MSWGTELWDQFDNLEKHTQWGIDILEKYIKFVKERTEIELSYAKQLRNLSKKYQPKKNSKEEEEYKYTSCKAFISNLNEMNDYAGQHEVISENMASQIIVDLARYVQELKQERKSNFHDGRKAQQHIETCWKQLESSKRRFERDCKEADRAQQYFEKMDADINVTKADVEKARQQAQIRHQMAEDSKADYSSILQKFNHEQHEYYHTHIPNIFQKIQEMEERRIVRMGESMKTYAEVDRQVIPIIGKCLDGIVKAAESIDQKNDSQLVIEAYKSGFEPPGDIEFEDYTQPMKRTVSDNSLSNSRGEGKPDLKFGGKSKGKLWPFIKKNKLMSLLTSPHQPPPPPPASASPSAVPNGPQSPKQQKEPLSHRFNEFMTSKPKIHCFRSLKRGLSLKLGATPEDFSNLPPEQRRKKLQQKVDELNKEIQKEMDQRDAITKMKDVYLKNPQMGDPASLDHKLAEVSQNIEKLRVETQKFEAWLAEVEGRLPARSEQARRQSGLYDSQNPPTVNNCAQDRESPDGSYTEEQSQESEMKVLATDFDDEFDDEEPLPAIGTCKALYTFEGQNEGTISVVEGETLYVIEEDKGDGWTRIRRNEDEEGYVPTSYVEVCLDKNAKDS
# Summary of the method: as §1
# [3] = target: T4, C9J494 and related entries (UniProt Q9H000)
# T4 sequence (whole entry): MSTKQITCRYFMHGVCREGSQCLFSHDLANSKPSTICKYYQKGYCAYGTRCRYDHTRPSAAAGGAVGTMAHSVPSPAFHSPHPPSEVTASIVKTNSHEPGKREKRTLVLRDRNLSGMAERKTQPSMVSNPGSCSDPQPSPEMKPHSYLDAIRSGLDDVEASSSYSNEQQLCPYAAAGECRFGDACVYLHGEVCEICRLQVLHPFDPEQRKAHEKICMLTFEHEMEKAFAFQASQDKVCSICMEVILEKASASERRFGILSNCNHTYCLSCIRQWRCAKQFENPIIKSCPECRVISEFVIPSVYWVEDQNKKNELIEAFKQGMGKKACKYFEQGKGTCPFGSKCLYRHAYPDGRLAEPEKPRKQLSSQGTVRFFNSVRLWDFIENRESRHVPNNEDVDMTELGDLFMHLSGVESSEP
# Summary of the method: as §1
compound,measurement,setting,value
Nc1ncnc2c1ncn2[C@@H]1O[C@H](COP(=O)(O)OP(=O)(O)OP(=O)(O)O)[C@@H](O)[C@H]1O [adenosine triphosphate],NP40-soluble protein abundance,[1]; concentration: 1mM,0.952 ± 0.031
same,NP40-soluble protein abundance,[1]; concentration: 2mM,0.962 ± 0.054
same,NP40-soluble protein abundance,[1]; concentration: 4mM,0.986 ± 0.025
same,NP40-soluble protein abundance,[1]; concentration: 6mM,0.922 ± 0.025
same,NP40-soluble protein abundance,[1]; concentration: 8mM,0.939 ± 0.034
same,NP40-soluble protein abundance,[1]; concentration: 10mM,0.959 ± 0.075
same,NP40-soluble protein abundance,B7Z4W5; concentration: 1mM,1.05 ± 0.25
same,NP40-soluble protein abundance,B7Z4W5; concentration: 2mM,1.02 ± 0.2
same,NP40-soluble protein abundance,B7Z4W5; concentration: 4mM,0.967 ± 0.14
same,NP40-soluble protein abundance,B7Z4W5; concentration: 6mM,0.842 ± 0.25
same,NP40-soluble protein abundance,B7Z4W5; concentration: 8mM,0.982 ± 0.087
same,NP40-soluble protein abundance,B7Z4W5; concentration: 10mM,1.04 ± 0.1
same,NP40-soluble protein abundance,[2]; concentration: 1mM,0.93 ± 0.072
same,NP40-soluble protein abundance,[2]; concentration: 2mM,0.942 ± 0.037
same,NP40-soluble protein abundance,[2]; concentration: 4mM,0.918 ± 0.029
same,NP40-soluble protein abundance,[2]; concentration: 6mM,0.976 ± 0.036
same,NP40-soluble protein abundance,[2]; concentration: 8mM,0.915 ± 0.027
same,NP40-soluble protein abundance,[2]; concentration: 10mM,0.912 ± 0.019
same,NP40-soluble protein abundance,[3]; concentration: 1mM,1.05 ± 0.026
same,NP40-soluble protein abundance,[3]; concentration: 2mM,1.06 ± 0.026
same,NP40-soluble protein abundance,[3]; concentration: 4mM,1.07 ± 0.033
same,NP40-soluble protein abundance,[3]; concentration: 6mM,1.06 ± 0.049
same,NP40-soluble protein abundance,[3]; concentration: 8mM,1.08 ± 0.059
same,NP40-soluble protein abundance,[3]; concentration: 10mM,1.09 ± 0.053

# In a second layout: results already given.
compound	measurement	setting	value
Nc1ncnc2c1ncn2[C@@H]1O[C@H](COP(=O)(O)OP(=O)(O)OP(=O)(O)O)[C@@H](O)[C@H]1O [adenosine triphosphate]	NP40-soluble protein abundance	B7Z4W5; concentration: 4mM	0.967 ± 0.14
same	NP40-soluble protein abundance	B7Z4W5; concentration: 6mM	0.842 ± 0.25
same	NP40-soluble protein abundance	B7Z4W5; concentration: 8mM	0.982 ± 0.087
same	NP40-soluble protein abundance	B7Z4W5; concentration: 10mM	1.04 ± 0.1
same	NP40-soluble protein abundance	[2]; concentration: 1mM	0.93 ± 0.072

# Source: the supplement of paper PMC6411743
